# PubChem BioAssay AID1259254 | NCATS | 2017
# Screen: 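Genome-wide screen for genes that prevent DNA re-replication in cancer cells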 (primary screen)
# Cell system: human HCT116 colorectal cancer cells
# Reagents: single siRNA against human genes
# Timing: 3 days
# Measurement: 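Imaged Hoechst DNA stain sorts each cell into a cycle phase by DNA amount; per plate, G2 fraction set to 0% for non-targeting and 100% for GMNN siRNA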
# Direction: G2 robust z-score and G2 cells, % of GMNN control: higher = more G2 cells, more excess DNA replication; raw share of cells in G2: higher = larger share of cells with G2 DNA content
# Call rule: 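An siRNA counts as active if its G2 robust z-score lies at least 5 MADs above the screen median; here such calls match roughly 38% of GMNN control or more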
# In all, the deposit lists about 59,000 reagents; this is a part drawn at random. Of all reagents, about 1,550 (2.6%) are marked active. 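G2 share is only a proxy for re-replication; each gene was hit by three separate siRNAs, and active genes were retested.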 Raw values vary from plate to plate and are shown uncorrected. Reagents against one gene are numbered here. Not stated in the record: the amount of reagent.
target,reagent no.,G2 robust z-score,"G2 cells, % of GMNN control",raw share of cells in G2 (%),Outcome
"NPHS1 (NPHS1 adhesion molecule, nephrin)",1,-0.651,-1.61,4.74,inactive
"NPHS1 (NPHS1 adhesion molecule, nephrin)",2,-0.217,1.44,3.67,inactive
"NPHS1 (NPHS1 adhesion molecule, nephrin)",3,-0.677,-1.8,4.76,inactive
AP4M1 (adaptor related protein complex 4 subunit mu 1),1,-0.353,0.487,5.35,inactive
AP4M1 (adaptor related protein complex 4 subunit mu 1),2,-0.00766,2.91,5.05,inactive
AP4M1 (adaptor related protein complex 4 subunit mu 1),3,0.674,7.71,6.07,inactive
LRP10 (LDL receptor related protein 10),1,-0.847,-3,3.01,inactive
LRP10 (LDL receptor related protein 10),2,0.746,8.22,9.89,inactive
LRP10 (LDL receptor related protein 10),3,0.0378,3.23,5.26,inactive
CUL9 (cullin 9),1,0.356,5.47,8.57,inactive
CUL9 (cullin 9),2,-1.26,-5.87,2.19,inactive
CUL9 (cullin 9),3,0.21,4.44,5.39,inactive
OR13C5 (olfactory receptor family 13 subfamily C member 5),1,-0.581,-1.12,3.75,inactive
OR13C5 (olfactory receptor family 13 subfamily C member 5),2,-0.634,-1.49,2.63,inactive
OR13C5 (olfactory receptor family 13 subfamily C member 5),3,-0.615,-1.36,2.09,inactive
SNRNP70 (small nuclear ribonucleoprotein U1 subunit 70),1,0.941,9.59,8.91,inactive
SNRNP70 (small nuclear ribonucleoprotein U1 subunit 70),2,-0.236,1.31,5,inactive
SNRNP70 (small nuclear ribonucleoprotein U1 subunit 70),3,-0.153,1.89,4.58,inactive
LINC02860 (long independently transcribed non-coding RNA 2860),1,-1.22,-5.6,1.56,inactive
LINC02860 (long independently transcribed non-coding RNA 2860),2,-0.157,1.86,4.32,inactive
LINC02860 (long independently transcribed non-coding RNA 2860),3,-0.261,1.13,3.48,inactive
WDR24 (WD repeat domain 24),1,0.775,8.42,6.91,inactive
WDR24 (WD repeat domain 24),2,-1.2,-5.5,1.83,inactive
WDR24 (WD repeat domain 24),3,-0.222,1.41,2.83,inactive
VCY (variable charge Y-linked),1,0.267,4.85,7.28,inactive
VCY (variable charge Y-linked),2,-0.622,-1.41,2.85,inactive
VCY (variable charge Y-linked),3,2.08,17.6,10.9,inactive
PEX16 (peroxisomal biogenesis factor 16),1,8.73,64.4,34.4,active
PEX16 (peroxisomal biogenesis factor 16),2,0.342,5.38,6.19,inactive
PEX16 (peroxisomal biogenesis factor 16),3,-1.05,-4.42,1.8,inactive

2 entries from above, set out differently:
target	reagent no.	G2 robust z-score	G2 cells, % of GMNN control	raw share of cells in G2 (%)	Outcome
VCY (variable charge Y-linked)	3	2.08	17.6	10.9	inactive
PEX16 (peroxisomal biogenesis factor 16)	1	8.73	64.4	34.4	active
